# Measurements reported in patent US20230287070A1, “NOVEL TUMOR-SPECIFIC ANTIGENS FOR ACUTE MYELOID LEUKEMIA (AML) AND USES THEREOF” (UNIVERSITE DE MONTREAL, priority 2020, published 2023).
# Tested on: AML specimens vs MPCs
# Test: Fold change of RNA expression between AML specimens and MPCs
# Design: species or system human
row,Sequence,AML/MPC
1,IPLAVRTI (listed as Homo sapiens),8.644
2,TQVSMAESI (listed as Homo sapiens),0.7599
3,TVPGIQRY (listed as Homo sapiens),1.304
4,SLLSGLLRA (listed as Homo sapiens),308.14
5,ILLEEQSLI (listed as Homo sapiens),4.36
6,GARQQIHSW (listed as Homo sapiens),8.853
7,QIKTKLLGSL (listed as Homo sapiens),1.405
8,TILPRILTL (listed as Homo sapiens),0.6039
9,FLLEFKPVS (listed as Homo sapiens),0.178
10,PFPLVQVEPV (listed as Homo sapiens),0.4064
11,STFSLYLKK (listed as Homo sapiens),98.973
12,SYSPAHARL (listed as Homo sapiens),8.837
13,LSASHLSSL (listed as Homo sapiens),2.204
14,VLKEKNASL (listed as Homo sapiens),75.9224
15,SPADHRGYASL (listed as Homo sapiens),28.51
16,LLSRGLLFRI (listed as Homo sapiens),0.3377
17,KFSNVTMLF (listed as Homo sapiens),8.927
18,TPGRSTQAI (listed as Homo sapiens),8.315
19,KLLSLTIYK (listed as Homo sapiens),0.3604
20,PAPPHPAAL (listed as Homo sapiens),13.05
21,GQKPVILTY (listed as Homo sapiens),5.212

row,Sequence,AML/MPC
1,TVIRIAIVNK (listed as Homo sapiens),43568.4
2,ILLSNFSSL (listed as Homo sapiens),1.033
3,LTDRIYLTL (listed as Homo sapiens),203.504
4,SVFAGVVGV (listed as Homo sapiens),8.7
5,DLLPKKLL (listed as Homo sapiens),141.2948
6,EGKIKRNI (listed as Homo sapiens),0.7945
7,NVSSHVHTV (listed as Homo sapiens),7.343
8,KATEYVHSL (listed as Homo sapiens),67.34
9,LLDNILQSI (listed as Homo sapiens),2.345
10,FLASFVEKTVL (listed as Homo sapiens),0.3177
11,SIQRNLSL (listed as Homo sapiens),19.19
12,LPSFSRPSGII (listed as Homo sapiens),2.059
13,GPGSRESTL (listed as Homo sapiens),19.38
14,LNHLRTSI (listed as Homo sapiens),0.2756
15,PPRPLGAQV (listed as Homo sapiens),14.35
16,GLRLIHVSL (listed as Homo sapiens),2.739
17,SPVVRVGL (listed as Homo sapiens),22.15
18,AQKVSVGQAA (listed as Homo sapiens),2.691
19,LRSQILSY (listed as Homo sapiens),33.63
20,YYLDWIHHY (listed as Homo sapiens),21.44
21,IAGALRSVL (listed as Homo sapiens),221.362

row,Sequence,AML/MPC
1,AQMNLLQKY (listed as Homo sapiens),31.39
2,ATQNTIIGK (listed as Homo sapiens),2.542
3,ALDDITIQL (listed as Homo sapiens),17.32
4,THGSEQLHL (listed as Homo sapiens),3.293
5,REPYELTVPAL (listed as Homo sapiens),8.664
6,HVSDGSTALK (listed as Homo sapiens),2.419
7,LYIKSLPAL (listed as Homo sapiens),19.06
8,NILKKTVL (listed as Homo sapiens),0.9955
9,RYLANKIHI (listed as Homo sapiens),64.5122
10,HSLISIVYL (listed as Homo sapiens),80.1734
11,SLDLLPLSI (listed as Homo sapiens),17.24
12,KGHGGPRSW (listed as Homo sapiens),0.3527
13,LYPSKLTHF (listed as Homo sapiens),5.628
14,LTSISIRPV (listed as Homo sapiens),1.503
15,TISECPLLI (listed as Homo sapiens),1.644
16,ALASHLIEA (listed as Homo sapiens),15.4
17,FNVALNARY (listed as Homo sapiens),113.6
18,VLVPYEPPQV (listed as Homo sapiens),641.852
19,HTDDIENAKY (listed as Homo sapiens),88.63
20,IPHQRSSL (listed as Homo sapiens),61.73
21,SLREPQPAL (listed as Homo sapiens),69.21
